These results are taken from paper PMC3556742.

Amino acid sequences for entries named in this document (tags omitted).
UniProt Q9Y4K3: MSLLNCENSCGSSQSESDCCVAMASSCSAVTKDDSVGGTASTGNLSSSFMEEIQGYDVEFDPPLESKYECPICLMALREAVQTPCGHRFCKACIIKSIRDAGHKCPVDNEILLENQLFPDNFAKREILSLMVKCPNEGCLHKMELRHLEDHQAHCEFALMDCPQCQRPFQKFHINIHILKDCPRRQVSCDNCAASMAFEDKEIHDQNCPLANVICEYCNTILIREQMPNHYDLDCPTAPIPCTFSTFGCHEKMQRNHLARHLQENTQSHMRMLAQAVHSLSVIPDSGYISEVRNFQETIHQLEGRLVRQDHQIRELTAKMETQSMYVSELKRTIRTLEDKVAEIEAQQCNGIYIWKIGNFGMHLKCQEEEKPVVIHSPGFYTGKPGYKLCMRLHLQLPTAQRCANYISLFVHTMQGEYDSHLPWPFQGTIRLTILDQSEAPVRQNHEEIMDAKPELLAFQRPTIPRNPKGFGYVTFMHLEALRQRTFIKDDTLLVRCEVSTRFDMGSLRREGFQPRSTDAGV

For this assay, the target named is HA-tagged TRAF6 (human) (UniProt Q9Y4K3). As to the kind of experiment: co-IP; 293 cells co-transfected with HA-TRAF6 and pCR3.1 tetherin constructs; lysed 48 h later in 1% digitonin, 50 mM Tris-HCl pH 7.4, 150 mM NaCl with protease inhibitors and N-ethylmaleimide; postnuclear supernatant precipitated with anti-HA.11 mAb and protein G agarose; blot with anti-HA and anti-BST2.

Results are given in words; binding and its absence hold for the method and conditions named. Binding seen in cells or lysates may run through a third protein. Binding can be weak; no strength is given.

Consider “chimpanzee tetherin with the DDIWK motif deleted (from UniProt D7RVC2)”, for which the binding entry was “binds”.

As for “chimpanzee tetherin (from UniProt D7RVC2)”, the binding result was “binds”.
